Measurements as given in article PMC3894558, “Chemical signatures and new drug targets for gametocytocidal drug development” (Scientific Reports, 2014).
Where a name gives a salt, the structure may show the parent alone. Read-outs that look alike come from different tables or passages of the source.

Columns and labels:
[1] = test system: P. falciparum 3D7 gametocytes; assay: alamarBlue gametocyte viability assay, strain 3D7; format: cell-based, Plasmodium falciparum
[2] = test system: P. falciparum HB3 gametocytes; assay: alamarBlue gametocyte viability assay, strain HB3; format: cell-based; details: Plasmodium falciparum, HB3, strain profiling; 11 concentrations, 1:3 dilution, three times
[3] = test system: P. falciparum Dd2 gametocytes; assay: alamarBlue gametocyte viability assay, strain Dd2; format: cell-based; details: Plasmodium falciparum, DD2, strain profiling; 11 concentrations, 1:3 dilution, three times
[4] = SI Table 3, structure clusters, read-out: Activity against gametocytes IC50

IC50 ([1]; SI Table 3, structure clusters) [µM]	Compound	IC50 [1, 4] [µM]	further results
	CN(C)CCCN1c2ccccc2CCc2ccc(Cl)cc21 [Clomipramine]	35.5	
	Clc1ccccc1C(c1ccccc1)(c1ccccc1)n1ccnc1 [Clotrimazole]		IC50 [2]: 1.48 µM; IC50 ([1]; Plasmodium falciparum, 3D7, strain profiling, 11 concentrations, 1:3 dilution, three times, read-out: 3D7-gametocytes IC50): 1.87 µM; IC50 [3]: 1.48 µM
	CN(C)CCCN1c2ccccc2CCc2ccc(Cl)cc21 [Clomipramine hydrochloride]	3.55	
35.5	CN1CCC(=C2c3ccccc3C=Cc3ccccc32)CC1 [Cyproheptadine, reference compound]		
3.55	CN1CCC(=C2c3ccccc3C=Cc3ccccc32)CC1 [Cyproheptadine hydrochloride, reference compound]		
